PubChem BioAssay AID1347075 (National Center for Advancing Translational Sciences (NCATS), 2019)
About 5,500 (1.4%) of roughly 400,000 compounds were called active. Inconclusive means that the source gave no clear call. Such entries were picked first, then a sample of the others. Calls come from the whole dose curve; as a rule, active = well fitted cell-killing curve with a large enough effect; inconclusive = small, poorly fitted or top-dose-only effect, or effect the other way; inactive = flat fitted curve, though single readings scatter. Where the call is inconclusive, the potency comes from a doubtful curve fit.

Assay: qHTS assay for MDR1-selective chemotherapeutics: Primary screen using the parental adenocarcinoma cell KB-3-1; note: nearly all actives have a fitted effect of over 60% in size
Settings: KB-3-1 viability, CellTiter-Glo ATP luminescence, 72 h; activity change, negative = cytotoxic: at 46.1 µM (top of the series)
Procedure, shortened: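 Cytotoxicity in the drug-sensitive parental line KB-3-1 was scored as loss of CellTiter-Glo luminescence following 72 h incubation with compound. Values come from curve fitting of normalized concentration-response data.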
% is set by controls: 0 for no effect and ±100 for the full control effect; potency is the fitted concentration of half-maximal effect.

Row | SMILES | activity change, negative = cytotoxic | Potency
1 | CCCCCCN1CCN(C2CN(Cc3ccccc3)S(=O)(=O)C2)CC1 (stereo unspecified) | inactive: -0.0698% | –
2 | Cc1ccccc1S(=O)(=O)Cc1ccc(C(=O)NCCN(CC(C)C)CC(C)C)o1 | – | inconclusive: 29.1 µM [cytotoxic, single point]
3 | COc1ccc(C(C)(C)C)cc1NC(=O)CCCN1C(=O)CN(C)C1=O | inactive: -0.967% | –
4 | CCCCC(=O)Nc1ccc(C(=O)Nc2ccc(OC)cc2[N+](=O)[O-])cc1 | inactive: 17.2% | –
5 | COc1ccccc1CNC(=O)C1CCN(S(=O)(=O)Cc2ccccc2)CC1 | inactive: -0.814% | –
6 | COc1ccc(-c2csc(NC(=O)c3ccc(S(=O)(=O)N4CCc5ccccc5C4)cc3)n2)cc1 | – | inconclusive: 4.11 µM [cytotoxic, full curve]
7 | O=C(CSCc1c(Cl)cccc1Cl)Nc1nccs1 | – | inconclusive: 35.5 µM [cytotoxic, single point]
8 | COc1ccc(C(=O)NCCSC2CCCCC2)cc1 | inactive: -5.31% | –
9 | CC(NC(=O)C1CCC(C)(C(=O)O)C1(C)C)c1ccccc1 (stereo unspecified) | – | inconclusive: 0.0116 µM [cytotoxic, full curve, poor fit]
10 | O=C(CNC(=O)c1ccccc1F)NNC(=O)c1ccccc1O | inactive: -8.13% | –
11 | CC1(C)Cc2c(oc3ncn4ncnc4c23)CO1 | – | inconclusive: 13 µM [rising, partial curve, poor fit]
12 | O=C(Nc1nc(-c2ccccc2Cl)cs1)c1cccnc1 | – | inconclusive: 12.6 µM [cytotoxic, partial curve]
13 | CC(=O)N/C(=C\c1ccc(F)cc1)C(=O)N(C)C | – | inconclusive: 29.1 µM [rising, single point]
14 | CCOC(=O)N1CCC(N(CCN(C)C)C(=S)Nc2ccc(Oc3ccccc3)cc2)CC1 | inactive: -1.7% | –
15 | Cc1ccc(NC(=S)NNC(=O)c2ccccc2O)c(C)c1 | – | inconclusive: 9.2 µM [cytotoxic, partial curve]
16 | CC(=O)Nc1ccc(-c2nnc(SCC(=O)NCc3ccco3)n2C)cc1 | – | inconclusive: 7.31 µM [rising, full curve, poor fit]
17 | COCC(=O)N1CCC(Oc2ccc(C(=O)NCCCC3CCCC3)cc2)CC1 | – | inconclusive: 16.4 µM [cytotoxic, single point]
18 | COc1cc(C(=O)N2CCN(c3ccccc3OC)CC2)c([N+](=O)[O-])cc1OC | – | inconclusive: 23.1 µM [cytotoxic, single point]
19 | COc1ccccc1C1=CC(=O)C[C@H](c2ccc3c(c2)OCO3)C1 | – | inconclusive: 7.31 µM [cytotoxic, partial curve, poor fit]
20 | Cc1cccc2[nH]c3c(N4CC=C(c5ccc(F)cc5)CC4)ncnc3c12 | inactive: -12.4% | –
21 | Cc1cc(C)nc(Nc2nc(C(N)Cc3ccccc3)cs2)n1 (stereo unspecified) | – | inconclusive: 29.1 µM [cytotoxic, single point]
22 | COc1ccc(CNC(=O)C(=O)NCC(c2cccnc2)N2CCN(c3ccccc3)CC2)cc1 (stereo unspecified) | – | inconclusive: 10.3 µM [cytotoxic, partial curve, poor fit]
23 | Cc1ccc(NC(=O)CCC(=O)N/N=C/c2ccc([N+](=O)[O-])o2)cc1C | – | inconclusive: 29.1 µM [cytotoxic, single point]

Row | SMILES | activity change, negative = cytotoxic | Potency
24 | Cc1onc(-c2ccccc2)c1C(=O)NNC(=S)NC(=O)c1ccc(F)cc1 | – | inconclusive: 29.1 µM [cytotoxic, single point]
25 | O=C(CSC(=S)N1CCSCC1)c1ccc(Cl)cc1 | – | active: 8.2 µM
26 | CCOc1ccc(-c2nc(N)ncc2Oc2cccc(OC)c2)c(O)c1 | – | inconclusive: 29.1 µM [cytotoxic, single point]
27 | Cc1sc2ncnc(N/N=C/c3ccccc3O)c2c1C | – | inconclusive: 3.26 µM [cytotoxic, full curve, poor fit]
28 | Cc1ccc(C)c(-c2nnc(NC(=O)Cc3ccccc3)o2)c1 | inactive: 3.13% | –
29 | COc1ccccc1N1CCN(S(=O)(=O)c2c(C)nc3sccn3c2=O)CC1 | inactive: 5.49% | –
30 | COC(=O)c1ccc(OCC(=O)NC(C)(C)C)cc1 | inconclusive: 30.2% | –
31 | Cc1cc(C)c2sc(N3CCN(C(=O)c4ccc(N(C)C)cc4)CC3)nc2c1 | inactive: 11.2% | –
32 | CC(C)Cn1c(N)c(C(=O)NCc2cccs2)c2nc3ccccc3nc21 | – | inconclusive: 29.1 µM [cytotoxic, single point]
33 | COc1cc(C)c(/C=C/C(C)=C/C=C/C(C)=C/C(=O)O)c(C)c1C | inactive: 0% | –
34 | Cc1ccc(C(=O)N2CCN(c3cnn(C)c(=O)c3Cl)CC2)cc1 | – | inconclusive: 29.1 µM [cytotoxic, single point]
35 | N#CC(Cc1ccccc1OC(F)F)c1nc2ccccc2[nH]1 (stereo unspecified) | – | inconclusive: 29.1 µM [rising, single point]
36 | CC(C)c1nn2c(=O)cc(COC(=O)c3ccco3)nc2s1 | inactive: 16.8% | –
37 | Cc1cccc(N2CC(C(=O)NC3CCCCCC3)CC2=O)c1C (stereo unspecified) | inactive: -11.1% | –
38 | O=C(C1CC1)N1CCC(c2nc(-c3ccc(S(=O)(=O)NCC4CCCO4)cc3)no2)CC1 (stereo unspecified) | – | inconclusive: 7.94 µM [cytotoxic, partial curve]
39 | CCC(C)[C@H](NC(=O)N1CC(=O)Nc2ccccc21)C(=O)Nc1ccccc1C (stereo partly specified) | – | inconclusive: 29.1 µM [cytotoxic, single point]
40 | O=[N+]([O-])c1ccc(N=Nc2c(Cl)cc(O)cc2Cl)cc1 | – | active: 18.4 µM
41 | O=C(NCC1CCCCC1)c1ccc2nc([C@H]3C[C@H](O)[C@@H](CO)O3)[nH]c2c1 | inactive: 0% | –
42 | COc1cc(SC)ccc1C(=O)NCCc1ccccc1 | – | inconclusive: 16.4 µM [cytotoxic, single point]
43 | Cc1c(/C=C(\C#N)c2nn(-c3ccccc3)c(N)c2C#N)c2ccccc2n1Cc1ccc(F)cc1 | – | inconclusive: 29.1 µM [cytotoxic, single point]
44 | CCOC(=O)c1c(-c2ccc(C)cc2)csc1NC(=O)CCN1CC(C)OC(C)C1 (stereo unspecified) | – | inconclusive: 16.4 µM [cytotoxic, single point]
45 | Cc1cccc(-n2c(C)cc(/C=C3/C(=N)N4C(c5ccccc5)=CSC4=NC3=O)c2C)c1 | inactive: 2.73% | –
46 | O=C(N1CCCC1)C12CC3CC(C1)CC(C(=O)N1CCCC1)(C3)C2 | – | inconclusive: 2.91 µM [cytotoxic, partial curve, poor fit]

Grouped by structure: those above containing a thiophene ring, fused or not.
Row | SMILES | activity change, negative = cytotoxic | Potency
27 | Cc1sc2ncnc(N/N=C/c3ccccc3O)c2c1C | – | inconclusive: 3.26 µM [cytotoxic, full curve, poor fit]
32 | CC(C)Cn1c(N)c(C(=O)NCc2cccs2)c2nc3ccccc3nc21 | – | inconclusive: 29.1 µM [cytotoxic, single point]
44 | CCOC(=O)c1c(-c2ccc(C)cc2)csc1NC(=O)CCN1CC(C)OC(C)C1 (stereo unspecified) | – | inconclusive: 16.4 µM [cytotoxic, single point]
